These are yes or no findings as the source states them, for the method shown. Binding seen in cells or lysates may run through a third protein. For part of these data: A result given as binding can be weak or reduced; the word gives no strength. For part of these data: Sequences can lack the tags named with a protein.

Amino acid sequences for entries named in this document (tags omitted). A change or cut given only in a name is not applied to a line headed by its entry.
UniProt Q9W4W2: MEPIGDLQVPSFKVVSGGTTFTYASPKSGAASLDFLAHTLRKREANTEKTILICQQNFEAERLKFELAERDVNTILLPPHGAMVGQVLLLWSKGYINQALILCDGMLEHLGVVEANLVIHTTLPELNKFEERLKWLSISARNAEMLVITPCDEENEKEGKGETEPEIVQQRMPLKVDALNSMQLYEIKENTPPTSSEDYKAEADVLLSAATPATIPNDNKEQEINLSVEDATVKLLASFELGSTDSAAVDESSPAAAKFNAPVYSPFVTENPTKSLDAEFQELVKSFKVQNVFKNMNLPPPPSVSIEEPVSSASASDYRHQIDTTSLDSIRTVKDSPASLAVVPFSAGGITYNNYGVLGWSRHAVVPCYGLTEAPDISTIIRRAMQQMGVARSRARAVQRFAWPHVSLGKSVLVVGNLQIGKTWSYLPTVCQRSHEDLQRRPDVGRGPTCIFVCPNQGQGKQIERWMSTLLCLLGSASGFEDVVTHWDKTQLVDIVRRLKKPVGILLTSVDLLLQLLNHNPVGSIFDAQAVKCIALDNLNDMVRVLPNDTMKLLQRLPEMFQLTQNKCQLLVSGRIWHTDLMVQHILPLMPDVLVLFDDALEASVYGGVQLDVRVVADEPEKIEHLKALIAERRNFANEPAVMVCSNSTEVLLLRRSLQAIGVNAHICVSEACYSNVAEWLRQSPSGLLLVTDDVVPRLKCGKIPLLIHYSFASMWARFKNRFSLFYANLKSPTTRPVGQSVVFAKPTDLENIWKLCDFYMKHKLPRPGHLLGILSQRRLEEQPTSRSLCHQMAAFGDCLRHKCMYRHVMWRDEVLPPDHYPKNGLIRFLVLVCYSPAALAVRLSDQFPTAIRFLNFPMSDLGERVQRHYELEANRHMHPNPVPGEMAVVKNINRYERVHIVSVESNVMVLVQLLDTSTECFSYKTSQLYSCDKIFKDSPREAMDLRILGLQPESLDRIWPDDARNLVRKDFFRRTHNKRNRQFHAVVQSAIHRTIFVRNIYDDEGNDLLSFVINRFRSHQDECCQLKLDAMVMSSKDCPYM
UniProt Q9U1H9: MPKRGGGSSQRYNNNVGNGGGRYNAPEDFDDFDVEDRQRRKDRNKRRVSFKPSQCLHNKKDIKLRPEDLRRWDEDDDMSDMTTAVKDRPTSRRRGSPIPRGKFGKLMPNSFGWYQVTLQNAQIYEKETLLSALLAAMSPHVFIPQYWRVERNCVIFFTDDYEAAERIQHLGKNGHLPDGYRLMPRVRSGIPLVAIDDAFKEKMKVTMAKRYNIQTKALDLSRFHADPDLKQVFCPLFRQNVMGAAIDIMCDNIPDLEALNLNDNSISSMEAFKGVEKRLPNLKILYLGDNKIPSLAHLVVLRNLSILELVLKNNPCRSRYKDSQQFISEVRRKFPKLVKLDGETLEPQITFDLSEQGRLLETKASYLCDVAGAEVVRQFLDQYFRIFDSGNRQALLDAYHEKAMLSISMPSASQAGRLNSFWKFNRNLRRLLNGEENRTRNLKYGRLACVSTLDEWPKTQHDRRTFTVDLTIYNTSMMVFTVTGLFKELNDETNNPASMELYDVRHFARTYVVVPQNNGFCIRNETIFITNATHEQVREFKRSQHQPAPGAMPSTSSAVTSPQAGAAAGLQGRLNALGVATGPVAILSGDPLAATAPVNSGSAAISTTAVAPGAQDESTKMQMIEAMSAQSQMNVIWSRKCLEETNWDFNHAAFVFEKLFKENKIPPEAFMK

Assay [1] has as its target 3xFLAG-Yb (Drosophila melanogaster) (UniProt Q9W4W2). Put plainly: co-IP; OSCs transfected with 3xFLAG- and HA-tagged constructs, Pierce IP lysis buffer; anti-FLAG M2 magnetic beads overnight at 4°C, washes in TBS; western blot; also with RNase I treatment and with knockdown of endogenous Yb. (In general: In western blotting, separated proteins are transferred to a membrane and probed.)

Assay [2] has as its target T1, 3xFLAG-tagged Nup54 (Drosophila melanogaster) (UniProt Q9V6B9).
T1 sequence: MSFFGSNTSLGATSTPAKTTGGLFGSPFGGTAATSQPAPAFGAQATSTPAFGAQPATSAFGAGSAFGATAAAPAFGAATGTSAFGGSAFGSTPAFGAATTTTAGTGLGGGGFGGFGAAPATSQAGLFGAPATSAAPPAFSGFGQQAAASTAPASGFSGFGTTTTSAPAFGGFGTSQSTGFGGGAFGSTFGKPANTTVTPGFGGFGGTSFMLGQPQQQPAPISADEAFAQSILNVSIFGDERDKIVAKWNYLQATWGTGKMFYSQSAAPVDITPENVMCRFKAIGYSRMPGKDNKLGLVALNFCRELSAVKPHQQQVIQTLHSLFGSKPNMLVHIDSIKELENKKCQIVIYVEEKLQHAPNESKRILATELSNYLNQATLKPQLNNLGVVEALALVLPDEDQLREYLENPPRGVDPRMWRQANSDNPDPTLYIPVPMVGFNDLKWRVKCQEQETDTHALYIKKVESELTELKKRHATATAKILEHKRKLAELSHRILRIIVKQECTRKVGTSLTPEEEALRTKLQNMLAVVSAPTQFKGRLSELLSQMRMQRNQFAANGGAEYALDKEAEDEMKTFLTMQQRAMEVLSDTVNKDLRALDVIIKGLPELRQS
Put plainly: co-IP; S2 cells transfected with 3xFLAG- and HA-tagged constructs, lysed after 48 hr in Pierce IP lysis buffer; anti-FLAG M2 magnetic beads overnight at 4°C, washes 3 x 15 min in TBS; western blot.

In assay [3] the target is T1, 3xFLAG-tagged Nup54 (Drosophila melanogaster). Description: co-IP; OSCs transfected with 3xFLAG- and HA-tagged constructs, Pierce IP lysis buffer; anti-FLAG M2 magnetic beads overnight at 4°C, washes in TBS; western blot; also with RNase I treatment and with knockdown of endogenous Yb.
In assay [4] the target is T2, 3xFLAG-tagged Nup58 (Drosophila melanogaster) (UniProt Q9VDV3).
T2 sequence: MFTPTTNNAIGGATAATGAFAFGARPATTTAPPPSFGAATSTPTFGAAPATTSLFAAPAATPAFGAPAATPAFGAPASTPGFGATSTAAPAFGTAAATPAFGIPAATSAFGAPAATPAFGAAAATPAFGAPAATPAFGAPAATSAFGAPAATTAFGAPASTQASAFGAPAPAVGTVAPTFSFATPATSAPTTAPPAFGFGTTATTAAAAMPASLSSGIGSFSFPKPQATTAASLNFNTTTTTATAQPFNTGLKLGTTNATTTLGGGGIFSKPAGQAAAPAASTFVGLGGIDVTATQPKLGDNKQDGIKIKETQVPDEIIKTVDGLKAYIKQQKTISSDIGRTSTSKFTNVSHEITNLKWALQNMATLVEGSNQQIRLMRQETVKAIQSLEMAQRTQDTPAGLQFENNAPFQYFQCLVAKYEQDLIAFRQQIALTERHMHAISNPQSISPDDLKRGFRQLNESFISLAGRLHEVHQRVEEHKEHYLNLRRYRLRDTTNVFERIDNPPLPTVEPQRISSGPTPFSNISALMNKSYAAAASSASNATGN
The assay is described as above.

Assay [5] deals with T2, 3xFLAG-tagged Nup58 (Drosophila melanogaster). Put plainly: co-IP; S2 cells transfected with 3xFLAG- and HA-tagged constructs, lysed after 48 hr in Pierce IP lysis buffer; anti-FLAG M2 magnetic beads overnight at 4°C, washes 3 x 15 min in TBS; western blot.

Take “HA-tagged Nxf1 (from UniProt Q9U1H9 1-672)”: in assay [1], the binding entry is on record as “no binding”.
As for “Nup58 lacking the C-terminal domain (∆C) (Drosophila melanogaster) (domain or fragment)”, the binding result in assay [2] is recorded as “no binding”.
As to “Yb with deletion of the HelC domain (Drosophila melanogaster)”, the binding result in assay [3] and in assay [4] was “binds” throughout.
For the substance “Nup54 lacking the C-terminal domain (∆C) (Drosophila melanogaster) (domain or fragment)”, the binding entry in assay [5] is listed as “no binding”.
In the case of HA-tagged Yb (Drosophila melanogaster), the binding entry in assay [3], in assay [4], in assay [2] and in assay [5] was “binds” throughout.

Values taken from paper PMC8133776.
